Results published in paper PMC10061879.
Results are given in words; binding and its absence hold for the method and conditions named. In cells and extracts the contact can be indirect. Some results given as binding are weak or reduced against the parent protein; the word gives no strength. Tags and fused reporters may be left off the sequences shown.

Chains of the proteins cited; added tags and fusions are not shown.
UniProt P06241: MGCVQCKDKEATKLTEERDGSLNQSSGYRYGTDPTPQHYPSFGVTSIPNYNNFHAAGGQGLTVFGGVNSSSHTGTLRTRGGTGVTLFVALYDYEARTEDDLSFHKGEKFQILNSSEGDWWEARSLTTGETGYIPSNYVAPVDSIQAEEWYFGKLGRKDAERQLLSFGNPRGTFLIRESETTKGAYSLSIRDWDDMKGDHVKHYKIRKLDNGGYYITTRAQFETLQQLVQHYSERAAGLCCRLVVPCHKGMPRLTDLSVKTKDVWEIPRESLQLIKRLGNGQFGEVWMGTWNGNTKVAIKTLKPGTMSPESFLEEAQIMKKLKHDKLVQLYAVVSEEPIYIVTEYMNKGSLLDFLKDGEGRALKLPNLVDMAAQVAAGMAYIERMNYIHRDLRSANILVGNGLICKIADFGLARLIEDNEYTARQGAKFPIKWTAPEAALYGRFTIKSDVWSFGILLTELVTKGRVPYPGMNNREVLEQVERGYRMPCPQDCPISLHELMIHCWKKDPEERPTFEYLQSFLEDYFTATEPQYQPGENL

T1: MAG (full-length)-FC (UniProt P20916)
T1 sequence: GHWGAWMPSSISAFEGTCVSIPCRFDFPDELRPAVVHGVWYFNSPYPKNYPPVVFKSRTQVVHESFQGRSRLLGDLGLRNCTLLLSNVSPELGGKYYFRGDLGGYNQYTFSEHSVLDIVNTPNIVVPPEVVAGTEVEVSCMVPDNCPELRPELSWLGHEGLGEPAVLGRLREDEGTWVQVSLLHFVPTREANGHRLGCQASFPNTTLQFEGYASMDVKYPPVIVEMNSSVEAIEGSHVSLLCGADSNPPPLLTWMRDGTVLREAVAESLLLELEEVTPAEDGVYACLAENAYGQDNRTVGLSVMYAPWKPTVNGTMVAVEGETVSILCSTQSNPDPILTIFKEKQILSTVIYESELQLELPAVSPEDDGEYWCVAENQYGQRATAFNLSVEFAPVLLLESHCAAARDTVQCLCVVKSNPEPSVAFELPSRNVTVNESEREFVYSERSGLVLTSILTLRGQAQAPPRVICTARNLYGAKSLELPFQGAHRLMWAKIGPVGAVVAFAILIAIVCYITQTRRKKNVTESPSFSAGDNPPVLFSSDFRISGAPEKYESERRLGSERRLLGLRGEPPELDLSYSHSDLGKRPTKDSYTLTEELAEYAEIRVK


Tests used:
[1] = molecular target: T1, MAG (full-length)-FC; test: co-IP; forward and reverse co-immunoprecipitation of proteins expressed from CMV-MAG (full-length)-FC and pLVX-FYN-strepII plasmids; cells and buffers not stated
[2] = molecular target: FYN-strepII (UniProt P06241); test: as above

Molecule | binding [1] | binding [2]
FYN-strepII (from UniProt P06241 1-537) (enzyme) | binds | –
MAG (full-length)-FC (Fc fusion, UniProt P20916 20-626) GHWGAWMPSSISAFEGTCVSIPCRFDFPDELRPAVVHGVWYFNSPYPKNYPPVVFKSRTQVVHESFQGRSRLLGDLGLRNCTLLLSNVSPELGGKYYFRGDLGGYNQYTFSEHSVLDIVNTPNIVVPPEVVAGTEVEVSCMVPDNCPELRPELSWLGHEGLGEPAVLGRLREDEGTWVQVSLLHFVPTREANGHRLGCQASFPNTTLQFEGYASMDVKYPPVIVEMNSSVEAIEGSHVSLLCGADSNPPPLLTWMRDGTVLREAVAESLLLELEEVTPAEDGVYACLAENAYGQDNRTVGLSVMYAPWKPTVNGTMVAVEGETVSILCSTQSNPDPILTIFKEKQILSTVIYESELQLELPAVSPEDDGEYWCVAENQYGQRATAFNLSVEFAPVLLLESHCAAARDTVQCLCVVKSNPEPSVAFELPSRNVTVNESEREFVYSERSGLVLTSILTLRGQAQAPPRVICTARNLYGAKSLELPFQGAHRLMWAKIGPVGAVVAFAILIAIVCYITQTRRKKNVTESPSFSAGDNPPVLFSSDFRISGAPEKYESERRLGSERRLLGLRGEPPELDLSYSHSDLGKRPTKDSYTLTEELAEYAEIRVK | – | binds
